Values from PubChem BioAssay AID1159617 (Peter MacCallum Cancer Centre, 2016)
The deposit covers 153 reagents; this is a part drawn at random. 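Values are robust z-scores scaled across the full screen; higher values mean larger or longer cells.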 Further read-outs or replicates are left out here. Not stated in the record: the time to read-out.

- Screen: 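Size and shape changes after knock-down in blood and lymph vessel endothelial cells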 (tertiary re-screen of migration hits)
- System: human HMBEC blood microvascular and HDLEC lymphatic endothelial cells
- Reagent: siRNA pool against human genes, 40 nM
- Measured: 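Automated imaging of phalloidin actin stain giving per-cell area and length; replicate means turned into robust z-scores relative to all screened samples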
- Reading the numbers: cell area z-score, HMBEC: higher = larger cells

For CATSPERT, the entry reads cell area z-score, HMBEC 0.08. JUN showed cell area z-score, HMBEC -0.38. After knock-down of TPST2, the screen gave cell area z-score, HMBEC 1.71. After knock-down of P2RX2, the screen gave cell area z-score, HMBEC -1.01. With knock-down of BTK, the screen gave cell area z-score, HMBEC -0.15. SRMS scored cell area z-score, HMBEC 0.

HPDL gave cell area z-score, HMBEC -0.69. For TFAP2C the deposit lists cell area z-score, HMBEC 1.52. With knock-down of RELT the results were cell area z-score, HMBEC -0.95. Against GCGR, the values are cell area z-score, HMBEC 1.15. GPR152 gave cell area z-score, HMBEC 0.08. CHSY3 showed cell area z-score, HMBEC -0.78.

With knock-down of CWC22, the record shows cell area z-score, HMBEC -0.49. STYK1 gave cell area z-score, HMBEC -0.46. With knock-down of PI4KA the results were cell area z-score, HMBEC -1.17. After knock-down of MESP2, the screen gave cell area z-score, HMBEC -0.18. UHMK1 showed cell area z-score, HMBEC -1.59. Silencing of CSNK1G3 came out at: cell area z-score, HMBEC 0.4.

SETD2 gave cell area z-score, HMBEC 1.12. Depletion of PPP1CA came out at: cell area z-score, HMBEC -1.17.

Already shown: 3 of the entries above.
TPST2 → cell area z-score, HMBEC: 1.71
P2RX2 → cell area z-score, HMBEC: -1.01
BTK → cell area z-score, HMBEC: -0.15

The results go on:
Knock-down of MICAL2 gave: cell area z-score, HMBEC 0.29. Knock-down of CYP1A1 came out at: cell area z-score, HMBEC -0.32. Silencing of PSEN2 came out at: cell area z-score, HMBEC 0.17. CMTM8 gave cell area z-score, HMBEC 0.55. Depletion of LPL resulted in: cell area z-score, HMBEC 0.14. Against SELPLG the deposit lists cell area z-score, HMBEC -0.17.

Against FBXO7, the entry reads cell area z-score, HMBEC 0.81. Depletion of TMEM121B resulted in: cell area z-score, HMBEC 0.24. With knock-down of CKM, the screen gave cell area z-score, HMBEC -0.65. Knock-down of CNKSR1 resulted in: cell area z-score, HMBEC 0.54. Knock-down of CASK resulted in: cell area z-score, HMBEC -0.49.
